Source: patent US20260217701A1, “SELECTIVE BET INHIBITORS AND USES THEREOF” (Tay Therapeutics Limited, priority 2022, published 2026)
Where “and” joins values, the source holds several entries; their conditions need not be identical. Equal entries are not always repeated. Further values from the same series stand in other lists.

Legend:
[1] = CIA study: animal body weight; details: individual animals
IL-17A = IL-17A release from activated human PBMCs (ELISA); type: cell-based; details: Donors 1-7, two values per donor
Method: Human PBMCs used to analyze inhibition of CXCL10 were collected from 8 donors, PBMCs used to analyze inhibition of IL-17A were collected from 7 donors, and PBMCs used to analyze inhibition of IL-22 were collected from 6 donors. Compounds were serially diluted in 10 mM DMSO and further diluted in assay media to 100× the required final concentration, of which 2 μL was added to the specified well. […] The cell culture supernatant was collected and levels of IL-17A and IL-22 in the supernatant were assessed by ELISA (Invitrogen).

## Cn1cc(-c2ccccc2)c(-c2cn(C)c(=O)c3[nH]c(-c4cnn(C(F)(F)F)c4)cc23)cc1=O [Compound A, 6-methyl-4-(1-methyl-2-oxo-5-phenyl-1,2-dihydropyridin-4-yl)-2-(1-(trifluoromethyl)-1H-pyrazol-4-yl)-1,6-dihydro-7H-pyrrolo[2,3-c]pyridin-7-one]
[1]; Day 12, Group 6 (CIA + Compound A 3 mg/kg), 3 mg/kg
  Animal body weight percent change (%): 5.77%
[1]; Day 12, Group 7 (CIA + Compound A 10 mg/kg), 10 mg/kg
  Animal body weight percent change (%): −5.78% and 5.49% and 1.80% and 0.63% and 5.00% and 1.92% and 1.24% and 4.43%
[1]; Day 13, Group 5 (CIA + Compound A 1 mg/kg), 1 mg/kg
  Animal body weight percent change (%): 1.84%
[1]; Day 13, Group 6 (CIA + Compound A 3 mg/kg), 3 mg/kg
  Animal body weight percent change (%): 3.85%
[1]; Day 13, Group 7 (CIA + Compound A 10 mg/kg), 10 mg/kg
  Animal body weight percent change (%): −5.78% and 3.66% and 2.99% and −1.26% and 1.25% and 0.00% and −0.62% and 5.06%
[1]; Day 14, Group 5 (CIA + Compound A 1 mg/kg), 1 mg/kg
  Animal body weight percent change (%): 5.52%
[1]; Day 14, Group 6 (CIA + Compound A 3 mg/kg), 3 mg/kg
  Animal body weight percent change (%): 1.28%
[1]; Day 14, Group 7 (CIA + Compound A 10 mg/kg), 10 mg/kg
  Animal body weight percent change (%): −5.20% and 3.05% and 1.80% and −3.14% and 0.63% and 0.64% and 1.24% and 1.27%
[1]; Day 15, Group 5 (CIA + Compound A 1 mg/kg), 1 mg/kg
  Animal body weight percent change (%): 7.36% and 10.30% and −6.10% and 7.41% and 3.95% and 1.18% and 0.60% and 1.23%
[1]; Day 15, Group 6 (CIA + Compound A 3 mg/kg), 3 mg/kg
  Animal body weight percent change (%): −4.17% and 1.75% and −2.86% and 4.19% and −4.79% and 1.84% and 5.73% and 1.28%
[1]; Day 15, Group 7 (CIA + Compound A 10 mg/kg), 10 mg/kg
  Animal body weight percent change (%): −6.36% and 3.66% and 1.20% and −3.14% and 0.00% and 0.64% and −0.62% and 5.70%
[1]; Day 16, Group 5 (CIA + Compound A 1 mg/kg), 1 mg/kg
  Animal body weight percent change (%): 7.98% and 10.30% and −4.27% and 4.94% and 2.63% and 2.37% and −1.80% and −1.23%
[1]; Day 16, Group 6 (CIA + Compound A 3 mg/kg), 3 mg/kg
  Animal body weight percent change (%): −5.95% and −1.17% and −2.86% and 1.80% and −4.79% and 4.29% and 5.10% and 0.64%
[1]; Day 16, Group 7 (CIA + Compound A 10 mg/kg), 10 mg/kg
  Animal body weight percent change (%): −5.78% and 0.61% and 2.40% and −3.77% and 1.88% and 0.64% and −4.35% and 3.80%
[1]; Day 17, Group 5 (CIA + Compound A 1 mg/kg), 1 mg/kg
  Animal body weight percent change (%): 8.59% and 7.27% and −5.49% and 7.41% and 3.29% and 2.37% and −1.80% and −1.84%
[1]; Day 17, Group 6 (CIA + Compound A 3 mg/kg), 3 mg/kg
  Animal body weight percent change (%): −8.33% and −0.58% and −4.00% and 1.20% and −5.39% and 2.45% and 3.18% and 0.00%
[1]; Day 17, Group 7 (CIA + Compound A 10 mg/kg), 10 mg/kg
  Animal body weight percent change (%): −5.20% and −1.22% and −0.60% and −2.52% and 5.00% and 2.56% and −4.35% and 2.53%
[1]; Day 18, Group 5 (CIA + Compound A 1 mg/kg), 1 mg/kg
  Animal body weight percent change (%): 8.59% and 5.45% and −4.88% and 6.79% and 1.97% and 3.55% and −1.80% and −0.61%
[1]; Day 18, Group 6 (CIA + Compound A 3 mg/kg), 3 mg/kg
  Animal body weight percent change (%): −7.74% and −1.17% and −4.57% and 2.40% and −5.99% and 3.07% and 5.73% and −0.64%
[1]; Day 18, Group 7 (CIA + Compound A 10 mg/kg), 10 mg/kg
  Animal body weight percent change (%): −6.94% and −2.44% and 0.60% and −2.52% and 4.38% and 3.85% and −4.97% and 5.70%
[1]; Day 19, Group 5 (CIA + Compound A 1 mg/kg), 1 mg/kg
  Animal body weight percent change (%): 6.75% and 3.03% and −7.32% and 5.56% and 1.32% and 4.14% and −2.40% and 0.61%
[1]; Day 19, Group 6 (CIA + Compound A 3 mg/kg), 3 mg/kg
  Animal body weight percent change (%): −7.14% and −1.17% and −4.00% and 0.60% and −6.59% and 1.23% and 5.73% and −2.56%
[1]; Day 19, Group 7 (CIA + Compound A 10 mg/kg), 10 mg/kg
  Animal body weight percent change (%): −5.78% and −4.88% and 1.80% and −2.52% and 3.13% and 3.21% and −4.97% and 4.43%
[1]; Day 20, Group 5 (CIA + Compound A 1 mg/kg), 1 mg/kg
  Animal body weight percent change (%): 11.04% and 4.85% and −6.10% and 4.94% and 1.32% and 3.55% and −2.99% and −1.23%
[1]; Day 20, Group 6 (CIA + Compound A 3 mg/kg), 3 mg/kg
  Animal body weight percent change (%): −7.74% and −3.51% and −6.29% and −2.99% and −3.59% and 4.29% and 3.82% and −1.92%
[1]; Day 20, Group 7 (CIA + Compound A 10 mg/kg), 10 mg/kg
  Animal body weight percent change (%): −5.20% and −3.66% and 0.00% and −1.26% and 3.13% and 4.49% and −4.97% and 3.16%
[1]; Day 21, Group 5 (CIA + Compound A 1 mg/kg), 1 mg/kg
  Animal body weight percent change (%): 9.82% and 3.03% and −6.71% and 2.47% and 0.66% and 2.96% and −4.79% and 0.00%
[1]; Day 21, Group 6 (CIA + Compound A 3 mg/kg), 3 mg/kg
  Animal body weight percent change (%): −7.14% and −2.92% and −5.71% and −2.40% and −2.99% and 1.84% and 5.73% and −0.64%
[1]; Day 21, Group 7 (CIA + Compound A 10 mg/kg), 10 mg/kg
  Animal body weight percent change (%): −6.36% and −5.49% and 0.00% and 0.63% and 2.50% and 5.77% and −6.21% and 3.16%
IL-17A; Compound Conc. 0.003703704 μM
  Percent Inhibition Relative to Control (IL-17A): 70.33% and 80.41% and 67.79% and 60.5% and 70.45% and 69.67% and 63.45% and 71.06% and 74.87% and 79.08% and 75.92% and 67.69% and 54.36% and 79.88%
IL-17A; Compound Conc. 0.011111111 μM
  Percent Inhibition Relative to Control (IL-17A): 71.45% and 66.86% and 67.16% and 58.72% and 76.44% and 74.19% and 71.49% and 77.11% and 71.75% and 72.53% and 79.11%
